No constants are given. Whether binding was seen depends on the method and setting. Binding seen in cells or lysates may run through a third protein. Some entries that bind do so weakly or less than the wild type.
Columns and labels:
[1] = target: T1, Traf6 (mouse (endogenous in murine macrophages)) (UniProt P70196); experiment: co-IP; immunoprecipitation with an anti-Traf6 antibody (or IgG control) from PirB^MΦKO macrophages with or without transfected WT PirB or Myc-tagged PirB^3Y-F; densitometric analysis of Shp1
T1 sequence: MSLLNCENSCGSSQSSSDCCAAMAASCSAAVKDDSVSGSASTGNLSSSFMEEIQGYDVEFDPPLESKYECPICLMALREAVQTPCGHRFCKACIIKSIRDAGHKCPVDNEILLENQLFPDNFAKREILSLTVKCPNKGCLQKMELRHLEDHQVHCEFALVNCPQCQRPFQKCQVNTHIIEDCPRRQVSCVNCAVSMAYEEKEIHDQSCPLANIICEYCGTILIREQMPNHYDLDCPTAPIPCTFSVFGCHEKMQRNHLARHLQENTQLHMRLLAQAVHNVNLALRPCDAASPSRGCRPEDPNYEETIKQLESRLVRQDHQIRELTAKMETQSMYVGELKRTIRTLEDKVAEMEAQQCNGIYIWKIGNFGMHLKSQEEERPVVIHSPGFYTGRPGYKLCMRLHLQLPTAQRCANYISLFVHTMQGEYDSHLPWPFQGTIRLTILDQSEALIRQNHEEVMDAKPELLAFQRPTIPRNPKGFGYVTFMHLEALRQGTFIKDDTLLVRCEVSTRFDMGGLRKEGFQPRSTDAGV

Amino acid sequences for entries named in this document (tags omitted).
UniProt P52332: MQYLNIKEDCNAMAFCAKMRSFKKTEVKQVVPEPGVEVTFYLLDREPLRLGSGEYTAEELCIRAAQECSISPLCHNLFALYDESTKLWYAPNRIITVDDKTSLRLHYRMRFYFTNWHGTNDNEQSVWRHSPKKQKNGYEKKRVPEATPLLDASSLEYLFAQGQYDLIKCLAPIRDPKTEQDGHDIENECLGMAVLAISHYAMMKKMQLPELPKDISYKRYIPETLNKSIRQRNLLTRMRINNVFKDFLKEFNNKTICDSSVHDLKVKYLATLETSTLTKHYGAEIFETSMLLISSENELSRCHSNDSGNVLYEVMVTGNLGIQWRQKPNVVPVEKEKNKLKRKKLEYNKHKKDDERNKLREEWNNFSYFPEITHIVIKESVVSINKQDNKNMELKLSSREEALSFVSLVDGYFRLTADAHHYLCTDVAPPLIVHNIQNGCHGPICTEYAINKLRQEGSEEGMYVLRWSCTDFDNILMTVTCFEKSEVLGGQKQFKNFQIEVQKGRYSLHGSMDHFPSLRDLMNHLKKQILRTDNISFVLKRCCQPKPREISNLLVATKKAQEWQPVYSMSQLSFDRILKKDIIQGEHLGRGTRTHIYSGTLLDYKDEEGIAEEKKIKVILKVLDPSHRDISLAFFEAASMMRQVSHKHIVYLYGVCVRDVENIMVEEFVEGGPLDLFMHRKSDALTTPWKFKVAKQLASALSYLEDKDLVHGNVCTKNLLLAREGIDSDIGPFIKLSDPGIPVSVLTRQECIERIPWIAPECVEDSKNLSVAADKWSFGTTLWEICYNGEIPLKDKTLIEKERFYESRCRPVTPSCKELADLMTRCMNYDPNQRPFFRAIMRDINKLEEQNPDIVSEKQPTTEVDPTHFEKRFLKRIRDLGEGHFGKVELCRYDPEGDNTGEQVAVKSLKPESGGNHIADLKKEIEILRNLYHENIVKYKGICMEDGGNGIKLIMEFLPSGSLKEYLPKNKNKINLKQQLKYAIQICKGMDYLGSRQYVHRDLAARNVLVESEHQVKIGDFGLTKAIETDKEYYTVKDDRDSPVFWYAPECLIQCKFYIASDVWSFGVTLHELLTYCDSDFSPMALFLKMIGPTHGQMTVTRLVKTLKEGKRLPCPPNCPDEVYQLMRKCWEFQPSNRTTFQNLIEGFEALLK
UniProt P29351: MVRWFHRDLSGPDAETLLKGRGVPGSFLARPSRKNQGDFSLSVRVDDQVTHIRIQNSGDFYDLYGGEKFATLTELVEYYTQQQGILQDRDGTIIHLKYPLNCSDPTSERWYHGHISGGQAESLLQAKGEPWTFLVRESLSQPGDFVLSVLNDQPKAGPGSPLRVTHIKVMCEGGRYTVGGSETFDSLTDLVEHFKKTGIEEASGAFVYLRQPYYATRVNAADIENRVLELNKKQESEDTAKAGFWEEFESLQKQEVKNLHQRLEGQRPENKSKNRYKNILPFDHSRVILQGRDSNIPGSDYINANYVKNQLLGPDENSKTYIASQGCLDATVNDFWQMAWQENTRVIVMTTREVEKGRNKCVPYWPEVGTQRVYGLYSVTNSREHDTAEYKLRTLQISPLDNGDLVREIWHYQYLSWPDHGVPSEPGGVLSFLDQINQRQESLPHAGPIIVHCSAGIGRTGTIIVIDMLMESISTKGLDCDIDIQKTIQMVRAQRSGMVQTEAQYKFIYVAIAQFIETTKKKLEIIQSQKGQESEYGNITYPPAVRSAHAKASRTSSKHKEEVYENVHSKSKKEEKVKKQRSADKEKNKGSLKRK

[2] = target: Jak1 (mouse (endogenous in murine macrophages)) (UniProt P52332); experiment: co-IP; immunoprecipitation with an anti-Jak1 antibody (or IgG control) from PirB^MΦKO macrophages with or without transfected WT PirB or Myc-tagged PirB^3Y-F, exposed to acLDL for 24 h; densitometric analysis of Shp1
[3] = target: T2, paired immunoglobulin-like receptor B (PirB) (mouse (endogenous in murine macrophages)) (UniProt P97484); experiment: co-IP; anti-PirB immunoprecipitation from PirB^flox macrophages, p-Shp1 detected; PirB^MΦKO macrophages as control
T2 sequence: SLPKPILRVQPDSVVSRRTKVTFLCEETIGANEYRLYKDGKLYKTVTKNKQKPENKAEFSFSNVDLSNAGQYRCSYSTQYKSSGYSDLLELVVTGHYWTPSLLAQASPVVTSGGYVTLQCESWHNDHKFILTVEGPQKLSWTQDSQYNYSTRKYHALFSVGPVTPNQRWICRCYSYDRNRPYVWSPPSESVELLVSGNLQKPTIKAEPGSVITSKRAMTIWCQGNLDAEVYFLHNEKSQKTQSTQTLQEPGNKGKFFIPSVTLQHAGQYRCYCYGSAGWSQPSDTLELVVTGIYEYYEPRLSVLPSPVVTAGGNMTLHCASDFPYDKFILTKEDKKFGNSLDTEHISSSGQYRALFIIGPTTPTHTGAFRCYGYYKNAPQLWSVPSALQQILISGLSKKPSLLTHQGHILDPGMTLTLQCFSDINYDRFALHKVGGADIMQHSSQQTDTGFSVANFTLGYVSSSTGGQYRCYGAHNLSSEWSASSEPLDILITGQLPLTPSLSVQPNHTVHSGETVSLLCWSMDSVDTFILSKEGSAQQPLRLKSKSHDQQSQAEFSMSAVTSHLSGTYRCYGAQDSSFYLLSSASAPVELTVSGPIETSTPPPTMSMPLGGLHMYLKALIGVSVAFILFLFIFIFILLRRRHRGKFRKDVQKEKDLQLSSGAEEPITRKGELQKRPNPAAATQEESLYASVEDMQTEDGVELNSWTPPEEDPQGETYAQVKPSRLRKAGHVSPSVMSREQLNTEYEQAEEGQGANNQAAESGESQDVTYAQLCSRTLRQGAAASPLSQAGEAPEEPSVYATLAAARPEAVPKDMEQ

Substance	binding [1]	binding [2]	binding [3]
Src homology 2 domain-containing phosphatase 1 (Shp1) (from UniProt P29351 1-595) (enzyme)	binds	binds	
phosphorylated Src homology 2 domain-containing phosphatase 1 (p-Shp1) (from UniProt P29351 1-595) (enzyme)			binds

Source: paper PMC8936951
